Measurements as given in paper PMC9242521.

Biological target: ΔEPIYA-CagA deletion mutant Δ1 (lacks one EPIYA motif) (Helicobacter pylori (strain not stated))
Assay: co-IP; AGS cells transfected with plasmids for wild type CagA, ΔEPIYA-CagA mutants or PR CagA; lysates immunoprecipitated with CagA antibody, blots for ULF, SIVA1 and MKRN1

B1: SIVA1 (endogenous) (protein, UniProt O15304 1-175)
chain: MPKRSCPFADVAPLQLKVRVSQRELSRGVCAERYSQEVFEKTKRLLFLGAQAYLDHVWDEGCAVVHLPESPKPGPTGAPRAARGQMLIGPDGRLIRSLGQASEADPSGVASIACSSCVRAVDGKAVCGQCERALCGQCVRTCWGCGSVACTLCGLVDCSDMYEKVLCTSCAMFET
- binding: binds

No constants are given. Whether binding was seen depends on the method and setting. Binding seen in cells or lysates may run through a third protein. Binding calls can cover weak binding; strength is not graded here.
